# Reference: PMC7819943, “Rice protein-binding microarrays: a tool to detect cis-acting elements near promoter regions in rice”
# The other results are listed elsewhere or left out.
# Molecular target: T1, OsSMF1 (Oryza sativa, UniProt Q6ZLB0 1-436)
# T1 sequence: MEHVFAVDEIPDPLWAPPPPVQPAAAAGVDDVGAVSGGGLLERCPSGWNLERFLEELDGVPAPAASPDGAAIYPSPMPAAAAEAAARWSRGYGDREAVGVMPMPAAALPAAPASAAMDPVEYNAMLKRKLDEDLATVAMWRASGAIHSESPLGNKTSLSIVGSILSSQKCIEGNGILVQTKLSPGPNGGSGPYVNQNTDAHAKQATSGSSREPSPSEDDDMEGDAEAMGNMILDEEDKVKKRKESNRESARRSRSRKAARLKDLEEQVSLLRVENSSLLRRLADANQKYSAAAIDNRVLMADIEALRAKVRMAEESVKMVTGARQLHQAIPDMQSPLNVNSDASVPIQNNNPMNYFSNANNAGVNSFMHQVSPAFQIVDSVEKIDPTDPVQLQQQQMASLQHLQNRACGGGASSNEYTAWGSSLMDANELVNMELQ
# Assay: protein-binding microarray (RPBM); PBS, 2% BSA, 51.3 ng/ul salmon testes DNA, 50 uM zinc acetate, 200 nM TF, 25 C, 1 h; high values mean tight binding
# Conditions: protein: recombinant; tags: N-terminal polyhistidine and DsRed monomer fusion (pET32a); chain copies: 2; label: CyDye5-dUTP incorporated in the synthesized complementary strand; 3' TTTTT single-stranded linker to array surface; dsDNA, one strand shown
# Procedure, shortened: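 Binding signal is defined as the fluorescence intensity of each feature in arbitrary units, read on an Axon 4000B scanner. Transcription factors with N-terminal polyhistidine and DsRed fusions came from E. coli BL21-CodonPlus and were purified on Ni–NTA. They were incubated at 200 nM for 1 h at 25 °C on a custom Agilent array that had been made double-stranded with Cy5-dUTP, with 50 µM zinc acetate present, and the array was washed.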
row,Sequence,binding signal
1,AACCACAAGACGACGATGGGTTGGTGGCCGGCCGCCTCCCCGGAGTCACCTAGTGCAG,23800 fluorescence intensity (a.u.)
2,TCCAGATCCACACCAGCCACCCGACCGAGTCACGTGCGTCCGGAGTCACCTAGTGCAG,3370 fluorescence intensity (a.u.)
3,TGGAGAGGAGAGGGAGGGGTTTCCGGCCCCTTTGCATTTGCGGAGTCACCTAGTGCAG,3720 fluorescence intensity (a.u.)
4,GCGGCACAGCGGCTACAGCTAGTGCGAGCCACGGGTGCATCGGAGTCACCTAGTGCAG,4200 fluorescence intensity (a.u.)
5,GTCGCAGGGGCCGAACACCGTCAACCCTGAGATCCTAAAGCGGAGTCACCTAGTGCAG,3290 fluorescence intensity (a.u.)
6,ATGCAACAGCATCACACTATCACAGTCATGTAGGCCCAAGCGGAGTCACCTAGTGCAG,4500 fluorescence intensity (a.u.)
7,ATCGTGTCAGCTCAACGTGTCAGGCGTCGAATCTCGTAAACGGAGTCACCTAGTGCAG,4230 fluorescence intensity (a.u.)
8,AACGTAACAAGACGACGTTCTGACTCGTGACGCGAAGTTTCGGAGTCACCTAGTGCAG,4420 fluorescence intensity (a.u.)
9,GCCGCCTTTCGTTACCCACCAACCCAACCTCGTTCTACGGCGGAGTCACCTAGTGCAG,35900 fluorescence intensity (a.u.)
10,TTGATTGGAATACGGTGGATGATACTGAAGTAGACAAGAACGGAGTCACCTAGTGCAG,16000 fluorescence intensity (a.u.)
11,GTTATATCTCACGTGTCAAAATTCCTATGATTTTCAGTAACGGAGTCACCTAGTGCAG,4700 fluorescence intensity (a.u.)
12,CTGGACCAATAAGAGGGCCTCATCATGGCCACCCAATCGGCGGAGTCACCTAGTGCAG,3180 fluorescence intensity (a.u.)
13,GCTCCTTTCCTGCCTTGCTAGTGCGGCGCCGGTCACGGCACGGAGTCACCTAGTGCAG,3260 fluorescence intensity (a.u.)
14,ACAAATTATAAGTAACAAACTTTTGTGACGTATAGTAGCCCGGAGTCACCTAGTGCAG,4440 fluorescence intensity (a.u.)
15,GCGTTGCTGCTTCATTGTGTTACACGTAGTTGCTTAGGCACGGAGTCACCTAGTGCAG,5060 fluorescence intensity (a.u.)
16,CAGTCAGTACATAGCTGATCACTCTCATCTCTTGCATCTACGGAGTCACCTAGTGCAG,3570 fluorescence intensity (a.u.)
17,ATCATCTATCAATCCCTACCATCGCCCTCTTTCTGTTTTGCGGAGTCACCTAGTGCAG,3310 fluorescence intensity (a.u.)
18,GCTGCTGAGTCAACAACGACGACCGAGGTCAAAGCGCCACCGGAGTCACCTAGTGCAG,10000 fluorescence intensity (a.u.)
19,CGCACGCATCGTCGCGGCGGCGAGACGTGCCACCGCTTCGCGGAGTCACCTAGTGCAG,3420 fluorescence intensity (a.u.)
20,AACGTTGGATCTTTATTTTCGCAGGTGGATATGACACCCACGGAGTCACCTAGTGCAG,3160 fluorescence intensity (a.u.)
21,TCCAGGCCGCATTGGCGTCGAGTCATCGACCAATCCAATCCGGAGTCACCTAGTGCAG,5760 fluorescence intensity (a.u.)

row,Sequence,binding signal
1,AGGGCTATCTGCTATCTCATCTTGTATGACAAAGATTGATCGGAGTCACCTAGTGCAG,65500 fluorescence intensity (a.u.)
2,GAAAAGTCCACATGCTACGTGCTAGGGTTAACAACGTTTTCGGAGTCACCTAGTGCAG,15800 fluorescence intensity (a.u.)
3,GCCTATCCTGCCCTCTCTACTACCACCCTTATCGATCTCTCGGAGTCACCTAGTGCAG,3220 fluorescence intensity (a.u.)
4,CAAACTCCACTTGATTACTTCATCGTGCCGACGTCGACACCGGAGTCACCTAGTGCAG,4000 fluorescence intensity (a.u.)
5,CTCGTAAGTAATGACACTATGATGACATATATTTTCAGTGCGGAGTCACCTAGTGCAG,4280 fluorescence intensity (a.u.)
6,GCTGGCTGGATTGCCACGTGTATGTCACGTAGGATAAAACCGGAGTCACCTAGTGCAG,14300 fluorescence intensity (a.u.)
7,TGTACATTTCTACTGACCTGCCACGTGGCACTTTACATTCCGGAGTCACCTAGTGCAG,34600 fluorescence intensity (a.u.)
8,GCTCTGATATTTGATGAGGTTAAGCTTGTGCATGATGCAGCGGAGTCACCTAGTGCAG,3200 fluorescence intensity (a.u.)
9,ACCAACGGCCCACCGGCTTCCACGTACCCAACCAAACAAGCGGAGTCACCTAGTGCAG,4360 fluorescence intensity (a.u.)
10,CCGACGACCGGCCATAGCTCTCACACACAGGTCAGACCCCCGGAGTCACCTAGTGCAG,3780 fluorescence intensity (a.u.)
11,TGGATTTATATATCTTGATTTGTCATTAAGAATATCATGGCGGAGTCACCTAGTGCAG,4260 fluorescence intensity (a.u.)
12,CCCTGTTTTCATCACTGACGTAGCTAGCAACTAGCTTCCACGGAGTCACCTAGTGCAG,6440 fluorescence intensity (a.u.)
13,CTGTGCCGCTCGCTCGTTCGCTCTGTGACTGTACGTACATCGGAGTCACCTAGTGCAG,4590 fluorescence intensity (a.u.)
14,TCCTCACCACTCCGTCCTCACTGCAAACGGCTGCGGCCCCCGGAGTCACCTAGTGCAG,19900 fluorescence intensity (a.u.)
15,TTTTAGATCACATGCATCTGTGCCATATCATCACCCACTACGGAGTCACCTAGTGCAG,5790 fluorescence intensity (a.u.)
16,TCGTATGACCGTCAGCGAAAATGATAGAATAACGCTATGACGGAGTCACCTAGTGCAG,3150 fluorescence intensity (a.u.)
17,CGTGGTATCAAACGTCGACATTTTATAAACTTGATCAAATCGGAGTCACCTAGTGCAG,4220 fluorescence intensity (a.u.)
18,TGGTGCGATCGATCGATCGAGAGTTGTGTCACCTTGAAGACGGAGTCACCTAGTGCAG,3320 fluorescence intensity (a.u.)
19,CGGCCCAGCCTAGTAGCCCACGTGTGCCATCACTCATCCGCGGAGTCACCTAGTGCAG,6220 fluorescence intensity (a.u.)
20,AGAAAACAAGAGAGGAGCAAACACGTACTCTGAATGAACGCGGAGTCACCTAGTGCAG,4420 fluorescence intensity (a.u.)
21,AGAATGTTATACGGCGCTCGATCTATTATTCCGCACTCTACGGAGTCACCTAGTGCAG,27100 fluorescence intensity (a.u.)

# Quoted from the listing for reference:
row,Sequence,binding signal
3,GCCTATCCTGCCCTCTCTACTACCACCCTTATCGATCTCTCGGAGTCACCTAGTGCAG,3220 fluorescence intensity (a.u.)
4,CAAACTCCACTTGATTACTTCATCGTGCCGACGTCGACACCGGAGTCACCTAGTGCAG,4000 fluorescence intensity (a.u.)
5,CTCGTAAGTAATGACACTATGATGACATATATTTTCAGTGCGGAGTCACCTAGTGCAG,4280 fluorescence intensity (a.u.)
6,GCTGGCTGGATTGCCACGTGTATGTCACGTAGGATAAAACCGGAGTCACCTAGTGCAG,14300 fluorescence intensity (a.u.)
7,TGTACATTTCTACTGACCTGCCACGTGGCACTTTACATTCCGGAGTCACCTAGTGCAG,34600 fluorescence intensity (a.u.)
8,GCTCTGATATTTGATGAGGTTAAGCTTGTGCATGATGCAGCGGAGTCACCTAGTGCAG,3200 fluorescence intensity (a.u.)
9,ACCAACGGCCCACCGGCTTCCACGTACCCAACCAAACAAGCGGAGTCACCTAGTGCAG,4360 fluorescence intensity (a.u.)
10,CCGACGACCGGCCATAGCTCTCACACACAGGTCAGACCCCCGGAGTCACCTAGTGCAG,3780 fluorescence intensity (a.u.)
11,TGGATTTATATATCTTGATTTGTCATTAAGAATATCATGGCGGAGTCACCTAGTGCAG,4260 fluorescence intensity (a.u.)
12,CCCTGTTTTCATCACTGACGTAGCTAGCAACTAGCTTCCACGGAGTCACCTAGTGCAG,6440 fluorescence intensity (a.u.)
13,CTGTGCCGCTCGCTCGTTCGCTCTGTGACTGTACGTACATCGGAGTCACCTAGTGCAG,4590 fluorescence intensity (a.u.)
14,TCCTCACCACTCCGTCCTCACTGCAAACGGCTGCGGCCCCCGGAGTCACCTAGTGCAG,19900 fluorescence intensity (a.u.)
15,TTTTAGATCACATGCATCTGTGCCATATCATCACCCACTACGGAGTCACCTAGTGCAG,5790 fluorescence intensity (a.u.)
